# Laboratory results as given in patent publication US7943657B2, “Imidoalkanpercarboxylic acids” (Solvay Solexis S.p.A., priority 2002, dated 2011).
# At least one compound was matched to its structure with a doubt left.
# Assays:
# [1] = Phase separation and sedimentation of 5% aqueous PAP dispersion at rest in graduated cylinder; assay type: physicochemical; conditions: 5% by weight PAP dispersion, rest at room temperature
# Procedure: In a beaker immersed in a thermostatic bath an aqueous dispersion of alpha crystalline PAP in demineralized water at 5% by weight of PAP is prepared, by adding to 473.5 ml of demineralized water at the temperature of 50° C., kept under stirring with an anchor and a magnetic stirrer, 500 ppm of antifoam DB 100 and 1,000 ppm of surfactant Hostapur® SAS and 26.50 g of crystalline PAP in alpha form, of technical degree (titre: 94.3%) having average sizes higher than 100 micron. After 10 minutes of stirring at 50° C., the beaker is removed from the thermostatic bath and the aqueous suspension is transferred in a graduated cylinder. It is let rest at room temperature in the graduated cylinder.
# An aqueous dispersion of crystalline PAP in demineralized water at 5% by weight of PAP is prepared, as described in Example 2A, by adding to 471.9 ml of demineralized water 500 ppm of antifoam DB 100 and 1000 ppm of surfactant Hostapur® SAS and 28.1 g of crystalline PAP in beta form of technical degree (titre: 89%), having average sizes higher than 100 micron, in particular 80% of the particles being comprised between 100 and 200 micron. After 10 minutes of stirring at 50° C., the beaker is removed and the suspension is transferred into a graduated cylinder, as in Example 2A. […] The separation of the supernatant aqueous phase increases after 2 hours to more than 70% of the total volume.
# [2] = Dissolution time of crystalline PAP dispersed in standard detergent solution (HPLC); assay type: physicochemical; conditions: listed as microcrystals of PAP in beta form
# Procedure: Successive samples of liquid phase, carefully filtered on filter of 0.45 micron, are drawn and the PAP concentration in solution is determined by HPLC.
# Said times are determined by drawing some curves reporting in ordinate the PAP concentration dissolved in the aqueous phase (determined by HPLC) and in abscissae the sample drawing time, taking as 100% the PAP concentration asymptotically obtained at infinite time.
# The previous test is repeated by dispersing 70 mg of anhydrous crystalline PAP (base 100%), respectively of crystals and microcrystals (sizes lower than 10 micron) of PAP in beta form, obtained as from Examples 2B and 2A respectively, in one liter of aqueous solution, prepared as above, stirred and thermostated at the temperature of 25° C.
# Successive samples of liquid phase, carefully filtered on filter of 0.45 micron, are drawn, and the PAP concentration in solution is determined by HPLC.
compound,measurement,setting,value
"O=C(CCCCCN1C(=O)c2ccccc2C1=O)OO [Example 2A, ε-phthalimido-peroxyhexanoic acid]",separation of supernatant clear liquid phase,[1]; after 10 days,no more than 20 % by volume
same,solid phase thickening / sedimentation on the cylinder bottom,"[1]; 2A after two hours and 48 hours, 2B after 10 minutes",no thickening of solid phase on the cylinder bottom
same,necessary time for the dissolution of 90% of the crystalline PAP initially dispersed,"[2]; 70 mg PAP in 1 liter water 10° F. hardness + 1.70 g detergent IEC type B, 25° C.",14 min
same,necessary time for the dissolution of 90% of the crystalline PAP initially dispersed,"[2]; 100 mg PAP in 1 liter water 10° F. hardness + 1.70 g detergent IEC type B, 40° C.",15 min
